Reference: paper PMC12500958
These are yes or no findings as the source states them, for the method shown. For some assays here: In cells and extracts the contact can be indirect. Some binding calls cover weakened binding; strength is not graded here. For some assays here: Tags and fused reporters may be left off the sequences shown. Blank lines part the entries; values can stand above or below the substance they belong to.

Sequences of proteins named here, by UniProt entry; tags and fusion partners are left off.
UniProt Q15717: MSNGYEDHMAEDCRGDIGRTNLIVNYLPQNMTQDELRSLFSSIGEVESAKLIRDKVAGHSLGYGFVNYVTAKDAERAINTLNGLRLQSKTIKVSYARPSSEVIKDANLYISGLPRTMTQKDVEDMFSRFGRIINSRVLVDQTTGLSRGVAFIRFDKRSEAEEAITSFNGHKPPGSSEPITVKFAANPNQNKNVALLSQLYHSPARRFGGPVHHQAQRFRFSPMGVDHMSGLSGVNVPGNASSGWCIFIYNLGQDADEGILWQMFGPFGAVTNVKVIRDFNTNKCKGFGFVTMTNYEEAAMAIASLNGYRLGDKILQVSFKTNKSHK
UniProt P60842: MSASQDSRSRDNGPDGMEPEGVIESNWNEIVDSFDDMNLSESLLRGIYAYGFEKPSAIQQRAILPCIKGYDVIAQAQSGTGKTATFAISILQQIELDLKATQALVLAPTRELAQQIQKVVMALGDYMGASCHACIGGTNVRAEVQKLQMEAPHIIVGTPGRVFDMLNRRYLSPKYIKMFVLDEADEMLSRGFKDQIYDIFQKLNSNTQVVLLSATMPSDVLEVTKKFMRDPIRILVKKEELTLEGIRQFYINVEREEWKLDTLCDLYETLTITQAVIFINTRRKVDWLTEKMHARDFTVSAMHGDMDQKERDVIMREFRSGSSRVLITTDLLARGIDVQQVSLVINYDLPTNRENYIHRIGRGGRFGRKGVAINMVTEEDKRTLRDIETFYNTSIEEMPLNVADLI

What was measured:
[1] = target: IGF2BP2 (insulin-like growth factor 2 mRNA-binding protein 2), endogenous (human (endogenous in MDA-MB-231 and Hs 578T)) (UniProt Q9Y6M1); test: co-IP; MDA-MB-231 and Hs 578T cells treated with saline or cisplatin for 4 h; IGF2BP2 immunoprecipitated from lysates; blot for HUR and EIF4A1
[2] = target: T1, HIS-tagged IGF2BP2 truncated mutant M3 (401-599), in HEK 293T (UniProt Q9Y6M1); test: co-IP; HEK 293T co-transfected with FLAG-USP9X and HIS-tagged full-length or truncated IGF2BP2; IP with HIS beads, blot with anti-FLAG and anti-HIS
T1 sequence: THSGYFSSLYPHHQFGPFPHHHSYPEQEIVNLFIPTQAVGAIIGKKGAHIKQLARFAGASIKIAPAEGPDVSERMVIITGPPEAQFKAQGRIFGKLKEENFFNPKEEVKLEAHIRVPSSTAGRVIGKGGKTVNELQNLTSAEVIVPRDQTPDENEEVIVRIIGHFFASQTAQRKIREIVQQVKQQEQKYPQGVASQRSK

[3] = target: FLAG-tagged USP9X full-length (UniProt Q93008); test: co-IP; HEK 293T co-transfected with HIS-IGF2BP2 and FLAG-tagged USP9X full-length or truncated mutants; IP with FLAG beads, blot with anti-HIS and anti-FLAG
[4] = target: T2, FLAG-tagged USP9X truncated mutant M3 (1201-2000) (UniProt Q93008); test: as above
T2 sequence: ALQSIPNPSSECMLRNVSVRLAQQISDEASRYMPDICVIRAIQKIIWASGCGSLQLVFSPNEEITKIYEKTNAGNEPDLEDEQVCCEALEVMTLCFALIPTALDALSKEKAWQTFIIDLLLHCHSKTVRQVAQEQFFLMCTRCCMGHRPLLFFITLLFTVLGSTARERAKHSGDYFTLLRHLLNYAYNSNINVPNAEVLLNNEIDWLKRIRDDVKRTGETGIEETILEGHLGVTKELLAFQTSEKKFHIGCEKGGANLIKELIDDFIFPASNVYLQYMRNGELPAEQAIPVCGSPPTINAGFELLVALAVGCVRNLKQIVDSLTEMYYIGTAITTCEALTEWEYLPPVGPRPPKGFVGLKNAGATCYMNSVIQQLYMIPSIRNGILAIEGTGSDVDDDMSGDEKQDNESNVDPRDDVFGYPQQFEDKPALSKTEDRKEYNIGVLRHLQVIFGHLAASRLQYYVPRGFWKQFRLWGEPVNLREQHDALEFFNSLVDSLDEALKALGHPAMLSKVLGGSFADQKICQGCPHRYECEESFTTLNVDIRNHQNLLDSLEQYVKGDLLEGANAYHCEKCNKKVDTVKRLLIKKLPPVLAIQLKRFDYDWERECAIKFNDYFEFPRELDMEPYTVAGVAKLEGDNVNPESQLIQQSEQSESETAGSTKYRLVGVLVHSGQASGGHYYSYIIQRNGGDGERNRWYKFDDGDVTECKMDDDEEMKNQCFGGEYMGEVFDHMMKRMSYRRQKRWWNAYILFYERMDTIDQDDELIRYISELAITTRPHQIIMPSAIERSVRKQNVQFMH

[5] = target: T3, GST-tagged USP9X M3 segment, purified protein (HY-P701431, MCE) (UniProt Q93008); test: pull-down; purified GST-USP9X-M3 and HIS-IGF2BP2 incubated in binding buffer at 4 °C for 2 h; pulled down with HIS/GST magnetic beads; Western blot; both purified
T3 sequence: T2 sequence

[6] = target: IGF2BP2 (insulin-like growth factor 2 mRNA-binding protein 2), endogenous (human (endogenous in MDA-MB-231 and Hs 578T)) (UniProt Q9Y6M1); test: co-IP; endogenous proteins; MDA-MB-231 and Hs 578T lysates (IP lysis buffer), antibody on protein A/G magnetic beads overnight at 4 °C, Western blot
[7] = target: T4, His-tagged IGF2BP2-M3 overexpressed in IGF2BP2-knockdown MDA-MB-231 and Hs 578T cells (UniProt Q9Y6M1); test: co-IP; His-tagged IGF2BP2-M3 overexpressed in IGF2BP2-knockdown MDA-MB-231 and Hs 578T cells treated with cisplatin or saline; IP with anti-HIS antibody; blot for USP9X, WWP1 and HIS-tag
T4 sequence: T1 sequence

- binding [2]: binds
Substance: FLAG-tagged USP9X full-length (from UniProt Q93008 1-2554) (enzyme)

- binding [1]: binds
Substance: Human antigen R (HUR), endogenous (from UniProt Q15717 1-326)

- binding [6]: binds
- binding [7]: binds
Substance: USP9X (ubiquitin specific peptidase 9 X-linked), endogenous (from UniProt Q93008 1-2554) (enzyme)

Continued, substance first:

Substance: Eukaryotic Initiation Factor 4A1 (EIF4A1), endogenous (from UniProt P60842 1-406)
- binding [1]: binds

Substance: HIS-tagged IGF2BP2 full length (from UniProt Q9Y6M1 1-599)
- binding [3]: binds
- binding [4]: binds
- binding [5]: binds
